Laboratory results as given in PMC6179184, “Interaction of the Warsaw breakage syndrome DNA helicase DDX11 with the replication fork-protection factor Timeless promotes sister chromatid cohesion” (PLoS Genetics, 2018).
Where a chain is given by its changes, count along the chain named. Results are given in words; binding and its absence hold for the method and conditions named. Binding seen in cells or lysates may run through a third protein. A result given as binding can be weak or reduced; the word gives no strength. For part of these data: Sequences can lack the tags named with a protein.

Assays:
[1] = target: T1, DDX11-3xFlag Q23A mutant (human) (UniProt Q96FC9); test: co-IP; whole cell extracts of HEK 293T cells transiently expressing DDX11-3xFlag (wild type or mutants), anti-Flag M2 agarose beads, 50 mM Tris-HCl pH 8.0, 150 mM NaCl, 0.25% Triton X-100, 10% glycerol, 2 hr at 4 C, elution with Flag peptide; Western blot of endogenous partners
T1 sequence: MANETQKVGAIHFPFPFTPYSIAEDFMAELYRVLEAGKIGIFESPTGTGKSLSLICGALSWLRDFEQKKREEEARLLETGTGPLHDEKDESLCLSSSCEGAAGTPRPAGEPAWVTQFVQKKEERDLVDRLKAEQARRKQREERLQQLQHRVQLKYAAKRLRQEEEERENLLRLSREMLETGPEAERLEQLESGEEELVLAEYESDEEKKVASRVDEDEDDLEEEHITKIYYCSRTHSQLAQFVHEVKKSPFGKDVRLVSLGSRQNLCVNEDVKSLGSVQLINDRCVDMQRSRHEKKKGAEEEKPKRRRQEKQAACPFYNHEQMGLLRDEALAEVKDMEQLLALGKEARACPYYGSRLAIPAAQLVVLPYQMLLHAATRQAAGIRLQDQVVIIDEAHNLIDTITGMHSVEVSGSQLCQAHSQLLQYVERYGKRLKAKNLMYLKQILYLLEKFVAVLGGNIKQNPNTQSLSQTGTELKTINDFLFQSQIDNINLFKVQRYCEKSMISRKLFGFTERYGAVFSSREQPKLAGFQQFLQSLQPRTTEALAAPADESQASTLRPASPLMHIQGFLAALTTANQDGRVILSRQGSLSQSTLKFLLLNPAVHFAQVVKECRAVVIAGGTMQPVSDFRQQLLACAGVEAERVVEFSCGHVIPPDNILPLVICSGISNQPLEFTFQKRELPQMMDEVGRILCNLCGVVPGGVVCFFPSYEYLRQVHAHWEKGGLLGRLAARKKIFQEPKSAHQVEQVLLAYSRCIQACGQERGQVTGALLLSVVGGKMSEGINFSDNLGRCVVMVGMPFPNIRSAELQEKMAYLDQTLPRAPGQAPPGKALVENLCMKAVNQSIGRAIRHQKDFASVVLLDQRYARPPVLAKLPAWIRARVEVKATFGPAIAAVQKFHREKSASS

[2] = target: T2, DDX11-3xFlag KAE mutant (human) (UniProt Q96FC9); test: as above
T2 sequence: T1 sequence with A23Q, E201K, Y202A

[3] = target: T3, DDX11-3xFlag KAK mutant (human) (UniProt Q96FC9); test: as above
T3 sequence: T1 sequence with A23Q, E201K, Y202A, E203K

[4] = target: T4, DDX11-3xFlag wild type (human) (UniProt Q96FC9); test: as above
T4 sequence: T1 sequence with A23Q

[5] = target: T5, DDX11-3xFlag K50R mutant (human) (UniProt Q96FC9); test: as above
T5 sequence: T1 sequence with A23Q, K50R

[6] = target: T6, endogenous Cdc45 (HeLa nuclear fraction) (human (endogenous in HeLa)) (UniProt O75419); test: co-IP; nuclear fraction (sonicated, micrococcal nuclease treated) of S phase control (C1) and DDX11-depleted (5-5) HeLa cells; anti-Cdc45 rabbit IgG or control IgG on Protein A Sepharose; 10 mM Hepes-NaOH pH 7.9, 50 mM NaCl, 1 mM DTT, 0.1% Triton X-100, 4 C; Western blot
T6 sequence: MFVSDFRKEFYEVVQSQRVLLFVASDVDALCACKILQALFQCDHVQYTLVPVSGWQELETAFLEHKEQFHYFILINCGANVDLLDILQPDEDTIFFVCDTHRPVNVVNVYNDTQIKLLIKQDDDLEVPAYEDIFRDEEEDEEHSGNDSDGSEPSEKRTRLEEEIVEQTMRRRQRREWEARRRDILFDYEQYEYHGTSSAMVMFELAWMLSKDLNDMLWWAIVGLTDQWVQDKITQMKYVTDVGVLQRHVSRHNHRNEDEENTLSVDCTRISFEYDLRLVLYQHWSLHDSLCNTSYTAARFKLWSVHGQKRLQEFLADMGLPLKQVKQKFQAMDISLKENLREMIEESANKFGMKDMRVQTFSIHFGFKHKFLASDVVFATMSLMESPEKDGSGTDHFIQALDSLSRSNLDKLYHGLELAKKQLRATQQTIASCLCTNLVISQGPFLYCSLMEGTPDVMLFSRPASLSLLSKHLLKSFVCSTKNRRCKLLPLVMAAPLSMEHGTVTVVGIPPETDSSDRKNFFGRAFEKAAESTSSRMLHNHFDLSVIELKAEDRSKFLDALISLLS

Measured: binding

endogenous cohesin (HEK 293T) (human (endogenous in HEK 293T)) (complex)
not listed: [6]
binds: all other assays above

endogenous cohesin (HeLa nuclear fraction) (human (endogenous in HeLa)) (complex)
binds: [6]
